{"sequences": {"note": "Sequences of proteins named here, by UniProt entry; tags and fusion partners are left off. A change or cut given only in a name is not applied to a line headed by its entry. Residues count along the entry.", "UniProt Q66HL2": "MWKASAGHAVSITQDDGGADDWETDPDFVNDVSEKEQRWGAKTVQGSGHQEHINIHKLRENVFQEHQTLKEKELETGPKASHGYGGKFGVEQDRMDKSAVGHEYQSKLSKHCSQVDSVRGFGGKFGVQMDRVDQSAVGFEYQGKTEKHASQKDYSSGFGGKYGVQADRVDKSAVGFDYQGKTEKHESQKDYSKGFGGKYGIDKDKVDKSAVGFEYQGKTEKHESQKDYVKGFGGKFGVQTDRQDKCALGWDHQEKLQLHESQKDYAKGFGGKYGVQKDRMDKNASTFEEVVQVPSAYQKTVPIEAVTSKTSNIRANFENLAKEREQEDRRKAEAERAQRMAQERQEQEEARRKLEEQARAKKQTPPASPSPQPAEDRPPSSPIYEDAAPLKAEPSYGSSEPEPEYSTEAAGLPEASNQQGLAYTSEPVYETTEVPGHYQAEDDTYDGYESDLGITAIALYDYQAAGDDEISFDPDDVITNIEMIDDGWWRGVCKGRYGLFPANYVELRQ", "UniProt P19491, residues 22-883": "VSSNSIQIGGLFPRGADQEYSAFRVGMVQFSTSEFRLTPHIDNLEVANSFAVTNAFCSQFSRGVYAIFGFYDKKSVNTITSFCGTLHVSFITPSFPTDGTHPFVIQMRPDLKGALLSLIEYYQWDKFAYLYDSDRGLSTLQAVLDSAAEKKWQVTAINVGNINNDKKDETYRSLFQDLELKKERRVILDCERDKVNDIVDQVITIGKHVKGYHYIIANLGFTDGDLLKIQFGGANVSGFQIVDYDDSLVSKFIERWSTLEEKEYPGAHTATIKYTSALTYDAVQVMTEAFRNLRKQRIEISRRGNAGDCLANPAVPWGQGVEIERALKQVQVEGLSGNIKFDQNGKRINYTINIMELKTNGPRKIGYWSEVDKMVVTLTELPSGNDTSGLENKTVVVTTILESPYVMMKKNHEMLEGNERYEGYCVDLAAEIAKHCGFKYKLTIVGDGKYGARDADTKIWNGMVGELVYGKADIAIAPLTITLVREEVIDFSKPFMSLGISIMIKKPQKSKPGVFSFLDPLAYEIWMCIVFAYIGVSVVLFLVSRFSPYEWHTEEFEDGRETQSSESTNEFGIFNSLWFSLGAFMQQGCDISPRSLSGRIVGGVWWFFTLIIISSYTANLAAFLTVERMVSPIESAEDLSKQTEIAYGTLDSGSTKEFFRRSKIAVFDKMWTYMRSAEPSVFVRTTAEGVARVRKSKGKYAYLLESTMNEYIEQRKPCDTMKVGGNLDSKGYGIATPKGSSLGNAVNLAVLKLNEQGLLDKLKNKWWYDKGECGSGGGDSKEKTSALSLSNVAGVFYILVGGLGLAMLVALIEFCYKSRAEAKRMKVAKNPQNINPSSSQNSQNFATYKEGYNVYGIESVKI"}, "source": "paper PMC5841360", "target": "cortactin (endogenous, neurons) (rat (endogenous in cultured neurons)) (UniProt Q66HL2)", "experiment": "co-IP; lysates of cultured neurons immunoprecipitated with cortactin antibody or control IgG; Western blotting; also after NMDA for 3 min (cLTD; 0, 5 and 15 min after stimulation) with or without the Src inhibitor PP2", "note": "These are yes or no findings as the source states them, for the method shown. Binding seen in cells or lysates may run through a third protein. A result given as binding can be weak or reduced; the word gives no strength."}
{"substance": "GluA2 AMPA receptor subunit (endogenous, neurons) (from UniProt P19491 22-883)", "values": [{"measurement": "binding", "value": "binds weakly"}]}
